This is one part of the list. Rule as the data show it: active = 2 or more and inactive = the rest. This data set is noisy: repeats of one test often differ as much as different tests do.
System: Lgr5 (MarsCy1-Lgr5-EGFP, U2OS)
Assay: cell-surface Lgr5 expression (SCi1 fluorescence, background-subtracted) relative to WT DMSO (fold of DMSO control); higher = more Lgr5 at the plasma membrane
Details: U2OS MarsCy1-Lgr5-EGFP stable; treatment time: overnight; library: ActiProbe-5K (TimTec); 25 µM

cell-surface Lgr5 expression, inactive:
O=C(NCCCCCCNC(=O)C1CCCCC1)C1CCCCC1 0.992
CSc1sc2c(O)nc(=O)[nH]c2c1C#N 1.24
CCn1cc(C(=O)O)c(=O)c2cnc(N3CCN(C(=S)NC)CC3)nc21 1.05
CCc1sc(/C=N\NC(N)=O)cc1Br 1.02
CN1C(=S)NC(C)(C)CC1(C)O (stereo not given) 1.18
O=C1CCCC(O)=C1C1(O)C(=O)c2ccccc2C1=O 1.27
O=S1(=O)c2cccc3cccc(c23)N1Cc1cccc(F)c1 0.942
COc1cc2c(cc1[N+](=O)[O-])OCO2 1.2
CN(C)c1nc(N)nc(CN2C(=O)C3CC=CCC3C2=O)n1 (stereo not given) 1.11
COc1ccc(Nc2nc(NN)nc(OCC(F)(F)F)n2)cc1 1.39
O=C(O)C1=CC=C(Cl)[C@H](O)[C@@H]1O 1.31
CCOC(=O)N1CCC2(CC1)C(C#N)=C(N)OC1=C2C(=O)CC(C)C1 (stereo not given) 1.3
O=C(N/N=C/c1ccc(Br)s1)c1ccco1 1.52
CC(=O)Nc1nonc1NC(=O)CSc1nc(N)n[nH]1 1.22
Nc1ncnc(N2CCCCC2)c1[N+](=O)[O-] 0.56
O=C(Nc1nncs1)c1cccs1 1.23
Nc1nnnn1/N=C1/C(=O)Nc2ccc(Br)cc21 1.45
Cc1occc1C(=O)N/N=C/c1ccco1 0.962
COc1cc(OC)cc(C2SC(N)=C(C#N)C(N)=C2C#N)c1 (stereo not given) 1.11
O=[N+]([O-])c1cc([N+](=O)[O-])c2cc(-c3ccco3)[nH]c2c1 1.43
COc1ccc(C2C=C(c3ccc(F)cc3)NC(=N)S2)cc1 (stereo not given) 1
c1ccc(-c2ccc(-c3nncc(-c4ccccc4)n3)nc2)cc1 1.2
CNc1nc(Cl)nc(Cl)n1 1.52
Cc1cc(=O)n2nc(N)sc2n1 1.18
O=C(Nc1c[nH]c(=O)[nH]c1=O)c1ccco1 1.31
CC(C)(C)c1cn2c3ccccc3nc2n1CCN1CCCC1 1.6
O=C(C1CC1)N1CCN(C(=O)C23CC4CC(CC(C4)C2)C3)CC1 0.86
Cc1nc2cc3c(cc2s1)OCO3 1.26
O=C(NS(=O)(=O)Oc1ccc(F)cc1)OC[C@@H]1CCCN2CCCCC12 (stereo not given in full) 1.39
O=C(O)C12CC3CC(CC(O)(C3)C1)C2 1.09

Two entries drawn at random from the list so far:
cell-surface Lgr5 expression, inactive:
CC(=O)Nc1nonc1NC(=O)CSc1nc(N)n[nH]1 1.22
CNc1nc(Cl)nc(Cl)n1 1.52
